Laboratory results taken from publication PMC10724065.

What was measured:
[1] = target: T1, His-tagged GAI (Arabidopsis thaliana) (UniProt Q9LQT8); experiment: pull-down; 5 μg His-GAI held on Ni-NTA agarose, 5 μg MBP-SLY1/sly1 added with an equal amount of GST-GID1C and 0.1 mM GA3, 1 h at 4 °C, immunoblot with anti-His, anti-MBP and anti-GST; both purified
T1 sequence: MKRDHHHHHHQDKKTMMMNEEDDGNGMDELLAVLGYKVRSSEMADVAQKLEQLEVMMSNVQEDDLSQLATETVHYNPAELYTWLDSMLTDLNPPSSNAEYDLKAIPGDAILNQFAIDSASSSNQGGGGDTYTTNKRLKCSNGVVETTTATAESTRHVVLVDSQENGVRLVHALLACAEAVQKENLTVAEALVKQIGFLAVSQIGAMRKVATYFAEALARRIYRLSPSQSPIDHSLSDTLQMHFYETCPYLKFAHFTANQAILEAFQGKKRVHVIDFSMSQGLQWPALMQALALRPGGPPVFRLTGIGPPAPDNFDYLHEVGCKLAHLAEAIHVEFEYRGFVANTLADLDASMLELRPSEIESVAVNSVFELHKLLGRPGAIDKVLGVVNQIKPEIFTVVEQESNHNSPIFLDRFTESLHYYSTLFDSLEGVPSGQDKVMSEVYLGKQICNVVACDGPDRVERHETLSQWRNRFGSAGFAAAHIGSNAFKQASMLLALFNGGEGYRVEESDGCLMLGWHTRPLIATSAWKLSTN

[2] = target: T1, His-tagged GAI (Arabidopsis thaliana); experiment: pull-down; 5 μg His-GAI/gai held on Ni-NTA agarose, 5 μg MBP-SLY1/sly1 added, 1 h at 4 °C, five washes, immunoblot with anti-His and anti-MBP; both purified
[3] = target: T2, Oryza sativa GID2 (yeast bait fusion) (Oryza sativa) (UniProt Q7XAK4); experiment: two-hybrid; SLY1/GID2 baits (pGBKT7) and DELLA preys (pGADT7); spotted on SD/-LWAH/X, strain AH109, 3-5 d at 30 °C; strengths quantified as β-galactosidase units with CPRG in liquid culture, strain Y187 (ND if OD578 <0.01 after 3 h)
T2 sequence: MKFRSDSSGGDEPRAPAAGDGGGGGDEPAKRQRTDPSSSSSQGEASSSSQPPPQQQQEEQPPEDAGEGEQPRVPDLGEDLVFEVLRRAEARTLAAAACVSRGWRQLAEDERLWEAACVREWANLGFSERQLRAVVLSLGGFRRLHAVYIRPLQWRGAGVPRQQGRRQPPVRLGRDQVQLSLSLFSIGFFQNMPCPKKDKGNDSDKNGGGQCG

binding [1]	binding [2]	binding [3]	Substance
binds	binds		MBP-tagged SmSLY1 (Selaginella moellendorffii)
binds	binds		MBP-tagged MpSLY1 (Marchantia polymorpha)
		binds weakly	Marchantia polymorpha MpDELLA (yeast prey fusion)
		no binding	Selaginella moellendorffii SmDELLA1 (yeast prey fusion)
		no binding	Selaginella moellendorffii SmDELLA2 (yeast prey fusion)

No constants are given. Whether binding was seen depends on the method and setting. Binding can be weak; no strength is given. Tags and fused reporters may be left off the sequences shown.
